Results taken from KR20160117808A.
No constants are given. Whether binding was seen depends on the method and setting. Some binding calls cover weakened binding; strength is not graded here.

Protein sequences, listed by entry. Tags and fused reporters are not part of them. Residues count along the entry.
UniProt P63304, residues 113-261: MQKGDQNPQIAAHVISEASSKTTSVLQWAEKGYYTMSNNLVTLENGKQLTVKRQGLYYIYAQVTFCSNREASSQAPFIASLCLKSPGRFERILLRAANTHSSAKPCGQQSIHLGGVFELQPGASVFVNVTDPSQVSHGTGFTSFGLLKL

Assays:
[1] = biological target: 원숭이 CD154(CD40L) 항원 (Rhesus monkey) (UniProt P63304); experiment: ELISA by concentration, purified biotinylated antibody (m9C3.Aff-biotin, m9C3.IEX-biotin)
[2] = biological target: 원숭이 CD154(CD40L) 항원 (Rhesus monkey) (UniProt P63304); experiment: ELISA, coated CD40L antigen, hybridoma supernatant

- binding [1]: binds
- binding [2]: binds
B1: RM9C3 융합 세포주가 생산하는 항 원숭이 CD154 항체 (antibody, V domains shown)
VH: EVQLQQSGPELVKPGASVKISCKTSGYTFTEYTIHWVKQSHGESLEWIGGIYPNTGGTNYNQKFKGKATLTVDKSSSTVYMEFRGLTSEDSAVYYCARLLFDCDVDWFAYWGQGTLVTVSA
VL: NIVMTQTPKFLLVSAGDRITITCKASQSVNNNVAWYHQKPGQSPKLLIYYASNRYIGVPDRFTGSGYGTDFTFTISTVQAEDLAVYFCQQDHSSLTFGAGTKLELKR
